The experiment can be described thus: IkB Signaling. To be noted: ABC-DLBCL IkBa-CBG/CBR dual luciferase ratio (green luciferase fused to IkBa over red control in OCI-Ly3 lymphoma cells), 4 h. The essentials: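 Curves were fitted separately to fusion (green), unfused (red) and ratio luminescence, then classed by r2, magnitude and activity. Cells: OCI-Ly3, 4 h compound plus doxycycline at 37C; 10 uM MG-132 defined full response.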
The mark [1] stands for this setting: measured here: control luc red channel unless noted.
The mark [2] stands for this setting: measured here: IkB-luc green channel.
The mark [3] stands for this setting: measured here: control luc red channel.

The term AC50 denotes the concentration at which the activity in the assay is half-maximal.

Some of the results follow. Shown are side measurements of this screen, not its main read-out; they come without a call. Most of these compounds were active or inconclusive in the main read-out, so they are no random draw. The note in brackets gives the kind of curve behind each potency; many fits are weak.

Regarding `CCC1CN(S(=O)(=O)c2cc(-c3onc(C)c3C)ccc2C)c2cc(Cl)ccc2O1` (stereo not drawn), under setting [1], the AC50 is 1.58 µM [falling, full curve].
The same measure, in the same setting: the value for `O=C(c1ccc2c(c1)OCCO2)C1CCN(C(=O)c2ccc(F)c(F)c2)CC1` was 31.6 µM [falling, single point]; that for `N#Cc1ccsc1NC(=O)CSc1ncnc2ccccc12` was 20 µM [falling, single point]; that for `COc1cc(NC(=O)C(CC(C)C)NS(=O)(=O)c2ccc3c(c2)CCN3C(C)=O)cc(OC)c1` (stereo not drawn) was 20 µM [falling, single point].
Same read-out and setting: the value for `CC(C)c1ccc2oc(-c3ccc(NC(=O)c4cccc(Br)c4)cc3)nc2c1` was 12.6 µM [falling, partial curve].
On the same count and under the same terms, as for `CCOc1ccc2nc(N3CCCC(C(=O)Nc4cc(Cl)c(OC)cc4OC)C3)sc2c1` (stereo not drawn), the figure is 0.126 µM [falling, partial curve, poor fit]; as for `CCCCCCSc1nnc2c(n1)OC(C)Nc1ccc(Br)cc1-2` (stereo not drawn), 39.8 µM [falling, single point]; as for `CCOC(=O)c1ccccc1NC(=O)COc1ccccc1-c1nnc(-c2ccccc2)o1`, 2 µM [falling, full curve].
With `COc1ccc(CNC(=O)c2ccc(NC(=O)N3CCSc4ccccc43)cc2)cc1`, the AC50 under setting [1] was 25.1 µM [falling, single point].
Take `Cc1cc2c(=O)n(Cc3ccco3)c(SCC(=O)c3ccc(Cl)s3)nc2s1`: under setting [1], the AC50 is 5.01 µM [falling, partial curve].
Still for that read-out and setting: as for `Nn1c(SCC(=O)Nc2ccc(F)cc2F)nnc1C1CCCCC1`, the figure is 0.316 µM [falling, full curve]; as for `CCC(C(=O)N1CCN(c2cc(C)ccc2C)CC1)n1nc(C)n2c(cc3occc32)c1=O` (stereo not drawn), 25.1 µM [falling, single point].
Regarding `Cc1nc2sc(C(c3ccco3)N3CCC(C)CC3)c(O)n2n1` (stereo not drawn), the AC50 is 15.8 µM [rising, partial curve] under setting [2] and 6.31 µM [falling, partial curve] under setting [3].
On to `Cc1ccc2c(CN3CCN(C(=O)c4ccc(Br)cc4)CC3)cc(=O)oc2c1`, for which the AC50 under setting [1] is 20 µM [falling, partial curve].
The same measure, in the same setting: as for `CCOc1ccc(NC(=O)C2CCCN(c3nnc(C)c4c(C)n(-c5ccccc5)nc34)C2)cc1` (stereo not drawn), the figure is 39.8 µM [falling, single point]; as for `Cn1c(Sc2ccc(-c3cccnc3)n2C)ccc1-c1cccnc1`, 6.31 µM [rising, single point] [measured here: IkB-luc green channel]; as for `O=C(Nc1nccs1)C1CCCN(S(=O)(=O)c2cccc3cccnc23)C1` (stereo not drawn), 10 µM [falling, partial curve].
The same measure, in the same setting: the value for `Cc1ccc(CNC(=O)CCNS(=O)(=O)c2cccc3nsnc23)cc1` was 12.6 µM [falling, partial curve]; that for `CCn1cc(C(=O)N(C)c2ccc(C(C)C)cc2)c2cc(OC)c(OC)cc2c1=O` was 12.6 µM [falling, partial curve, poor fit]; that for `COc1ccc(C2CC(=O)c3c(C)nc(N4CCN(Cc5ccccc5)CC4)nc3C2)cc1OC` (stereo not drawn) was 5.01 µM [falling, full curve, poor fit].
The same measure, in the same setting: as for `CCCN(CCC)CC(O)Cn1cc(/C=C/C(=O)c2ccc(Br)cc2)c2ccccc21` (stereo not drawn), the figure is 6.31 µM [falling, partial curve]; as for `Cc1c(CCC(=O)N2CCCCC2)c(=O)oc2cc3occ(C(C)(C)C)c3cc12`, 31.6 µM [falling, single point].
Turning to `COc1ccc(CNC(=O)Cc2ccc(NC(=O)N3CCSc4ncccc43)cc2)cc1`, the AC50 under setting [1] is 39.8 µM [falling, single point].
Turning to `Cc1ccc(Cc2nc3ccccc3nc2SCC(=O)N2CCN(c3ccc(F)cc3)CC2)cc1`, the AC50 under setting [1] was 25.1 µM [falling, single point].
Still for that read-out and setting: as for `Cc1ccc(Nc2cc(C)nn2-c2nc(C)cc(C)n2)cc1`, the figure is 31.6 µM [falling, single point]; as for `Cc1ccc2oc(NC(=O)N3CCOCC3)cc(=O)c2c1`, 39.8 µM [falling, single point].
On the same count and under the same terms, as for `Cc1cc(C)c(Cn2c(C3CC(=O)N(c4ccc(F)cc4)C3)nc3ccccc32)c(C)c1` (stereo not drawn), the figure is 15.8 µM [falling, partial curve].
The same measure, in the same setting: as for `COc1cccc(NC(=O)CSc2nc(=O)n(Cc3ccncc3)c3c2CCC3)c1`, the figure is 7.94 µM [falling, full curve]; as for `Cc1cc(NC(=O)CCC(=O)N(c2ccccc2)C(C(=O)NC2CCCC2)c2cccs2)no1` (stereo not drawn), 15.8 µM [falling, partial curve]; as for `CCNc1nc2c(c(=O)n(Cc3ccccc3)c(=O)n2C)n1Cc1ccccc1`, 15.8 µM [falling, single point].
Take `CCCCNS(=O)(=O)c1ccc(C)c(-c2nnc3c4ccccc4c(C)nn23)c1`: the AC50 under setting [1] was 12.6 µM [falling, partial curve].
The same measure, in the same setting: the value for `O=C(Nc1ccc(Br)cc1)c1ccc(F)c(S(=O)(=O)N2CCc3ccccc32)c1` was 20 µM [falling, partial curve].
Still for that read-out and setting: the value for `Cc1ccc(S(=O)(=O)C(CNC(=O)C(=O)NCc2ccccc2C)c2cccs2)cc1` (stereo not drawn) was 15.8 µM [falling, partial curve].
Turning to `CCNC(=O)c1ccc(CSc2nc3ccncc3n2Cc2ccc(F)cc2)cc1`, the AC50 under setting [1] was 31.6 µM [falling, single point].
As for `O=C(OCC(=O)N1CCc2ccccc21)c1ccccc1`, under setting [1], the AC50 is 12.6 µM [falling, partial curve].
On the same count and under the same terms, the value for `CC(=O)Nc1nc(-c2ccccc2)nc(-c2ccccc2OC(C)=O)n1` was 20 µM [falling, partial curve]; that for `COc1ccc(-c2noc(-c3ccccc3C(=O)Nc3cccc(OC)c3)n2)cc1` was 15.8 µM [falling, partial curve].
Still for that read-out and setting: as for `CCc1ccc(Nc2cc(=O)n(C3CCCCC3)c(=O)[nH]2)cc1`, the figure is 31.6 µM [falling, single point].
The same measure, in the same setting: as for `Oc1c(CN2CCc3ccccc3C2)cc(Cl)c2cccnc12`, the figure is 1.26 µM [rising, full curve] [measured here: IkB-luc green channel].
As to `CNCC[C@H](Oc1ccc(C(F)(F)F)cc1)c1ccccc1`, the AC50 runs as follows: under setting [2], 31.6 µM [falling, partial curve, poor fit]; under setting [3], 31.6 µM [falling, partial curve].
In the case of `O=C(NCc1ccc(F)cc1)c1ccc2c(c1)nnn2C1CCCC1`, the AC50 under setting [1] is 39.8 µM [falling, single point].
On the same count and under the same terms, as for `COc1ccc(N2C(=O)CS(=O)(=O)C23C(=O)N(Cc2ccc(C)cc2)c2ccccc23)cc1Cl` (stereo not drawn), the figure is 31.6 µM [falling, single point].
On the same count and under the same terms, the value for `CCOC(=O)c1c(-c2ccccc2)csc1NC(=O)c1nn(CC)cc1Br` was 10 µM [falling, partial curve].
On the same count and under the same terms, as for `COc1ccc(-c2cc(C)no2)cc1S(=O)(=O)N1CCN(c2ccccc2F)CC1`, the figure is 25.1 µM [falling, single point].
For `COc1ccc(CCNc2nc3c(-c4cccc(F)c4)nnn3c3ccccc23)cc1OC`, under setting [1], the AC50 is 0.316 µM [falling, full curve].
On the same count and under the same terms, as for `Cn1c(CSc2nnc(SCc3ccccc3)s2)nc2ccccc21`, the figure is 15.8 µM [falling, partial curve]; as for `CC1CCN(c2nc3c(S(=O)(=O)c4ccc(Cl)cc4)nnn3c3ccsc23)CC1`, 31.6 µM [falling, single point]; as for `Cc1onc(-c2c(Cl)cccc2Cl)c1C(=O)NCc1ccco1`, 20 µM [falling, partial curve].
As for `Cc1ccccc1NC(=O)CSc1cn(CC(=O)N(C(C)C)C(C)C)c2ccccc12`, the AC50 under setting [1] is 20 µM [falling, single point].
On the same count and under the same terms, the value for `CCc1ccccc1NC(=O)c1ccc(CN2C(=O)CCn3nc(C)cc32)cc1` was 20 µM [falling, single point]; that for `CC(=O)c1ccc(NC(=O)c2nc(-c3ccc(C)cc3)n3c2CCCCC3)cc1` was 0.0126 µM [falling, full curve]; that for `COc1ccc(CNc2nc3ccccc3c3nc(-c4ccccc4)nn23)cc1` was 0.1 µM [falling, full curve, poor fit].
On to `Cc1nn(-c2ccccc2)c2sc(-c3n[nH]c(=S)o3)cc12`, for which the AC50 under setting [1] was 25.1 µM [falling, single point].
Take `CCc1ccc(NS(=O)(=O)c2c(C)nc3sc(CC)nn3c2=O)cc1`: under setting [1], the AC50 is 0.501 µM [falling, full curve].
Still for that read-out and setting: as for `CCC1CCCCN1C(=O)CSc1nnc(-c2ccc3c(c2)OCCO3)o1` (stereo not drawn), the figure is 25.1 µM [falling, partial curve]; as for `Cc1ccc(CSc2oc(-c3cccs3)nc2S(=O)(=O)c2ccccc2)cc1`, 12.6 µM [falling, partial curve, poor fit]; as for `CCOC(=O)N1CCc2c(sc3c2c(=O)n(Cc2ccccc2)c(=O)n3Cc2ccccc2Cl)C1`, 25.1 µM [falling, single point].
In the case of `Cc1c(NC(=O)c2cc(-c3cccc(O)c3)on2)c(=O)n(-c2ccccc2)n1C`, the AC50 under setting [1] was 12.6 µM [falling, partial curve].
Same read-out and setting: the value for `COc1cccc(NC(=O)C2CCN(c3nnc(C)c4c(C)n(-c5ccccc5)nc34)CC2)c1` was 39.8 µM [falling, single point].
The same measure, in the same setting: the value for `Cc1ccc(S(=O)(=O)N(CC(=O)NCCc2ccc(Cl)cc2)c2ccccc2C)cc1` was 12.6 µM [falling, partial curve]; that for `COc1ccc(CCNC(=O)c2cnn(-c3ccc(F)cc3)c2C2CCN(C(=O)OC(C)(C)C)CC2)c(OC)c1` was 6.31 µM [falling, partial curve].

(Values after PubChem BioAssay AID445 (National Center for Advancing Translational Sciences (NCATS), 2006).)
